In the supplement of paper PMC3334620:
Over roughly 33,000 sequences, “E-score (-0.5 to 0.5)” has its median near -0.016; the highest 2% begin near 0.3. The list shows a part of the results.

molecular target: T1, Yer184c (UniProt P39961); assay: PBM E-score (8-mer binding enrichment) (E-score (-0.5 to 0.5)); higher = stronger / more preferred TF binding; details: protein concentration: 100 nM; construct: GST-full length
T1 sequence: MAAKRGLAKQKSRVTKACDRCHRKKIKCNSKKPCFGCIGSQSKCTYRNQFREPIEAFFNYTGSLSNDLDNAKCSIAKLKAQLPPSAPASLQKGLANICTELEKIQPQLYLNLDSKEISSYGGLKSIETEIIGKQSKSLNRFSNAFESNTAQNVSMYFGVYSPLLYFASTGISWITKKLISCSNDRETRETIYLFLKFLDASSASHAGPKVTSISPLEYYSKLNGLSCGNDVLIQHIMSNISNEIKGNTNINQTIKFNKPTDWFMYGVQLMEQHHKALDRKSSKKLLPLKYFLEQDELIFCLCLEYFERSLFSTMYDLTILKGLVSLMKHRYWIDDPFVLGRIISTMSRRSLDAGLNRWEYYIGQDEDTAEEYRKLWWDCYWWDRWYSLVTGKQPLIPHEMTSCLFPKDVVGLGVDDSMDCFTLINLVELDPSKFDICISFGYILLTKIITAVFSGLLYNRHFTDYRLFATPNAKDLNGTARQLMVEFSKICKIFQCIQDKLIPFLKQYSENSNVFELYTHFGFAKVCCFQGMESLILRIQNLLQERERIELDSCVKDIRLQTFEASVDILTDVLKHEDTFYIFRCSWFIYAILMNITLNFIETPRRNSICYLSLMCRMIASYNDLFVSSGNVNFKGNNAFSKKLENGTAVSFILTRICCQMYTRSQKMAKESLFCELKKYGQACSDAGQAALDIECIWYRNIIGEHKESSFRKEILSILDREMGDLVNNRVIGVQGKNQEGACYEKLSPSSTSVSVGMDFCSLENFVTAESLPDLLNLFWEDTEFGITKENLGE
Procedure: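 Universal 'all 10-mer' protein binding microarrays (Agilent AMADID 015681) probed with GST-tagged S. cerevisiae TFs (full-length or DBD) made by in vitro transcription/translation (PURExpress), about 100-200 nM. Bound TF was detected with fluorescent anti-GST. Each ungapped 8-mer (which stands for itself and its reverse complement) is scored by the PBM enrichment score (E-score), a modified Wilcoxon-Mann-Whitney statistic from -0.5 to +0.5, computed with the Universal PBM Analysis Suite. Scale: above 0.35 generally sequence-specific binding.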

Row | Sequence | PBM E-score
1 | CAGAAGGC | -0.169
2 | CCGGGAGG | 0.031
3 | AGACAGAA | 0.0626
4 | CTGTTGGA | 0.0412
5 | ATTGAGTA | 0.191
6 | GGAGACTA | -0.102
7 | CAACGAAG | 0.0112
8 | AAGGCCAG | -0.221
9 | AGCGTACT | -0.218
10 | CTACCAAG | -0.0732
11 | ATATGTTG | 0.0182
12 | AGACCAAT | 0.115
13 | AGGGCGGG | 0.0124
14 | GCAGTACA | -0.0532
15 | TACTTGAA | 0.0272
16 | ATGGACAG | -0.106
17 | GTGAAGAA | 0.201
18 | ATATCTCC | 0.139
19 | AGGTGCAA | -0.00956
20 | GTCGAGAA | -0.0535
21 | GGAAATCA | 0.171
22 | CCCCAAAG | -0.253
23 | ATCCGCTC | 0.0705
24 | GTCGCGTA | -0.0448
25 | AAACGCGA | -0.0215

Row | Sequence | PBM E-score
26 | ATCGCCAT | -0.0434
27 | ACTTATAG | -0.094
28 | AAGCGAGT | 0.225
29 | ATTAAAAG | 0.172
30 | ATAAAGAC | 0.0617
31 | GGATTACA | -0.0496
32 | ACACACAC | -0.0681
33 | CGAGAATA | 0.102
34 | CGAAGTAC | 0.0763
35 | CATCGGCA | 0.211
36 | CATCTTGG | -0.0174
37 | AGTGATAT | -0.0302
38 | TGAGAACA | 0.12
39 | GAAGGGGC | -0.358
40 | GACAGACA | 0.176
41 | AACATGTC | -0.00421
42 | CTGGAGGC | -0.122
43 | ATTGCGGC | 0.0068
44 | AGTTTATC | 0.175
45 | CTTTGCCA | 0.034
46 | ATTATCTG | 0.16
47 | ACCGCAAA | 0.115
48 | CCATCGTA | -0.0913
49 | ATTCGGGA | 0.205
50 | AATTCTTA | 0.0305

Row | Sequence | PBM E-score
51 | CCCGGGAA | 0.272
52 | AATAGAGG | -0.0709
53 | CCGCCGAG | 0.304
54 | AAGTTTGG | 0.113
55 | ATCTTACG | 0.066
56 | CGACAACG | 0.197
57 | AACTGCGG | 0.117
58 | ATTAACGA | 0.223
59 | AAGATCGC | -0.0568
60 | CCGGGAAG | 0.244
61 | CGATACAG | 0.0485
62 | CCAATTTC | 0.146
63 | AGAGTATG | -0.0604
64 | AAATCGCT | -0.116
65 | CAGTAGCC | -0.186
66 | GAACGAAA | -0.0735
67 | CATTGACG | -0.124
68 | CCGTAGCA | -0.0645
69 | AGGTTAAC | -0.037
70 | CCAGTGGG | -0.199
71 | GGTACTTA | 0.0666
72 | ACCTTTGC | -0.0958
73 | ATAGAGTC | -0.17
74 | CCGTCCGA | 0.102
75 | ACACGTCC | -0.116

Row | Sequence | PBM E-score
76 | GGGTTAGA | -0.134
77 | ACATCACT | -0.0268
78 | CATCAACG | 0.0675
79 | GATAGGAC | -0.257
80 | CAGCAATC | -0.0177
81 | TGGTACCA | -0.0226
82 | ACGACATG | -0.053
83 | AAAACCCG | 0.163
84 | CTATTCAC | 0.105
85 | AAGAGTGT | -0.0038
86 | CAAGAAGA | 0.0276
87 | AACATGAT | 0.132
88 | CACGAACC | -0.121
89 | AAGCGATC | -0.0129
90 | TAATCCTA | 0.0918
91 | AAACACAC | 0.127
92 | ACCTACAT | -0.0682
93 | CGCAAGAG | -0.00655
94 | ACGGTACT | -0.0252
95 | GGATAGAC | 0.0209
96 | GGGGCTAC | -0.159
97 | CCAAAGTC | -0.0544
98 | ATGTGTCC | 0.173
99 | GGCTGGAA | -0.116
100 | CGTTTTGC | 0.0551

Nos. 9–11, reprinted for reference:
Row | Sequence | PBM E-score
9 | AGCGTACT | -0.218
10 | CTACCAAG | -0.0732
11 | ATATGTTG | 0.0182

Carrying on:

Row | Sequence | PBM E-score
101 | AACTAAGT | 0.00148
102 | CCCTGCAG | -0.189
103 | CCTTCACG | -0.0411
104 | GGCCAAGA | -0.0714
105 | CGTGAGAG | -0.225
106 | GCATTACA | -0.0231
107 | CAAAAACC | 0.182
108 | CTCGCACA | -0.0367
109 | GCTGGGGA | -0.303
110 | CTGACAGC | -0.109
111 | ACGATCAT | -0.0558
112 | GGTACGAC | -0.189
113 | CAGACAGA | -0.0319
114 | CATCCCAA | 0.0166
115 | GCCGAGAC | 0.327
116 | CACTCCGC | -0.0284
117 | ACTTTCAG | 0.0817
118 | GCACTCCA | -0.187
119 | CATATCTC | -0.00517
120 | CTCGATGC | -0.125
121 | GGCTACTA | 0.0546
122 | AGCACACG | -0.11
123 | AAAATAAC | 0.014
124 | CACGTGAA | -0.0117
125 | TATGGAAA | 0.179

Row | Sequence | PBM E-score
126 | CGGACATC | 0.202
127 | CGCCGAAA | 0.293
128 | CGCGGACC | 0.215
129 | GGTCAAGA | -0.107
130 | AGTGGATC | -0.0609
131 | ATATGGCG | -0.00201
132 | CAGGGTAA | -0.154
133 | CCTACTAG | -0.244
134 | CAGGATCA | -0.0702
135 | CGGGATCA | 0.00237
136 | AAGTACGT | -0.0382
137 | ATCGCTTG | -0.245
138 | AGCCCAAT | -0.0597
139 | ACTTTTCA | -0.115
140 | CCACTGGG | -0.153
141 | CCTTTGTA | 0.0705
142 | AGGCAATC | -0.0694
143 | GTCGGCAC | 0.1
144 | ACGAATGC | -0.12
145 | ACAATAAC | 0.161
146 | CCGGCGAC | 0.233
147 | AGGGTTCC | -0.12
148 | GCAACTCA | 0.105
149 | CCGCATCC | 0.0202
150 | TAGCCTGA | -0.0773

2 entries picked at random from the list so far:
Row | Sequence | PBM E-score
149 | CCGCATCC | 0.0202
136 | AAGTACGT | -0.0382

Carrying on:

Row | Sequence | PBM E-score
151 | CTACCCAG | -0.167
152 | CTGAAGCA | -0.00127
153 | ACAAAAGG | 0.00961
154 | ATTATAGA | 0.175
155 | CACTTAGG | 0.00498
156 | CGGTTACG | 0.148
157 | CTCTTCGC | -0.0959
158 | CAGGGGAG | -0.307
159 | GGCCCTTA | -0.226
160 | ACGTAATA | 0.119
161 | ATTTATTC | 0.329
162 | GGTACATA | 0.0871
163 | GATCGATA | -0.00181
164 | CCACAGAA | 0.00134
165 | GAAAACGC | -0.0248
166 | ATTGGGTA | -0.222
167 | AACACGAT | 0.128
168 | AATCGCAC | -0.221
169 | CTCATAGC | -0.262
170 | ACTTGCCA | -0.078
171 | GAATTTTA | 0.219
172 | AGGGGGAT | -0.362
173 | ATGTGAGG | 0.0347
174 | ACTAGAAC | 0.0948
175 | GGAATGCA | 0.0114

Row | Sequence | PBM E-score
176 | AGTTAGAT | -0.0565
177 | AGAGACTG | -0.246
178 | ATCACCGC | -0.12
179 | ACCGAGCA | 0.225
180 | ACTCGCCA | -0.102
181 | GTTTATCA | 0.239
182 | ACGAGTTG | -0.0069
183 | ACGCGTTA | -0.0576
184 | ATTCTGCC | 0.201
185 | CAGAGACC | -0.251
186 | AATAGAAG | -0.0313
187 | TAGCAGGA | -0.149
188 | AAGTTCTG | -0.0496
189 | GGGCGAAA | 0.138
190 | AACCTCGG | 0.25
191 | GGTTAGAC | 0.0649
192 | CTTAGAAA | 0.203
193 | CTGCTCGC | -0.091
194 | CTGGATAC | -0.0922
195 | CGCGCGGA | 0.171
196 | CTCGCCTC | -0.252
197 | CAAATCCC | -0.116
198 | CTGTCCGA | 0.24
199 | AACAGGCT | -0.222
200 | CACAAGAC | -0.166

Row | Sequence | PBM E-score
201 | CATATCCA | -0.172
202 | ATGGATCA | -0.234
203 | AAGCCTGG | -0.145
204 | CCTGTGGC | -0.218
205 | TAACTCTA | -0.102
206 | GCGCTAGA | -0.0657
207 | CAGAACAC | -0.252
208 | AAGGTTCA | -0.0083
209 | TGGCTTAA | 0.175
210 | TCGCTAGA | -0.0195
211 | AAGAGTAT | -0.0392
212 | AGCACAGC | -0.0164
213 | AGGCCGAC | 0.0134
214 | TTGGCCAA | -0.324
215 | AGCTGTGG | -0.255
216 | GACTTCGC | 0.0456
217 | CGCTGTTC | -0.0698
218 | CTGTTTGA | 0.0151
219 | AATGTAGG | -0.29

Exported tab-delimited: part of the list above.
Row	Sequence	PBM E-score
206	GCGCTAGA	-0.0657
207	CAGAACAC	-0.252
208	AAGGTTCA	-0.0083
